The results in this text go back to PubChem BioAssay AID248 (DTP/NCI, 2004).

Molecules are shown by their SMILES. The list is a part of this screen's results and no random one: it gathers tests that were run many times, whatever their T/C, doses with no T/C, and many T/C values between a quarter and a half above the control. Other doses and runs of a compound stand elsewhere. T/C is the treated group as % of the vehicle group. Some doses have a count of surviving animals in place of a T/C: the source holds a T/C of zero for them, seemingly a mark for toxic or unscored doses. Some survivor counts are full or nearly so, which does not show that the dose was tolerated: survival well below the control is almost never listed, so the zero probably covers shortened survival too. Survivors were counted at the toxicity check, usually on the fifth day, unless a day is given; later deaths do not show. Schedules are NCI's codes, taken here to give the interval after Q, in days (D) or hours (H), and the number of doses after X. Some entries were tested several times; the results are listed from low to high. For survival time, this PubChem deposit counts one and a half times the control or more as active, and values a quarter to a half above the control carry no call in these data; other NCI protocols may use other cut-offs.

This assay deals with L1210 leukemia ip in BDF1 mice, survival T/C. Description: NCI In Vivo Anticancer Drug Screen. Data for tumor model L1210 Leukemia (intraperitoneal) in B6D2F1 (BDF1) mice. As to conditions: T/C endpoint: mean survival time, higher T/C = longer survival.
The mark [1] stands for this setting: dose: 400.0 mg/kg/injection, schedule: Q01DX009 (ip), vehicle: saline with Tween-80.
The mark [2] stands for this setting: dose: 400.0 mg/kg/injection, schedule: Q01DX001 (ip), vehicle: saline with Tween-80.
[3] abbreviates: dose: 200.0 mg/kg/injection, schedule: Q04DX002 (ip), vehicle: saline with Tween-80.
Setting [4] is: dose: 400.0 mg/kg/injection, schedule: Q04DX002 (ip), vehicle: saline with Tween-80.
[5] abbreviates: dose: 200.0 mg/kg/injection, schedule: Q01DX009 (ip), vehicle: Klucel (hydroxypropylcellulose) (HPC).
Setting [6] is: dose: 400.0 mg/kg/injection, schedule: Q04DX003 (ip), vehicle: saline with Tween-80.
[7] abbreviates: dose: 400.0 mg/kg/injection, schedule: Q01DX009 (ip), vehicle: Klucel (hydroxypropylcellulose) (HPC).
The mark [8] stands for this setting: dose: 400.0 mg/kg/injection, schedule: Q01DX001 (ip), vehicle: saline.
The mark [9] stands for this setting: dose: 150.0 mg/kg/injection, schedule: Q01DX001 (ip), vehicle: saline.
[10] abbreviates: dose: 300.0 mg/kg/injection, schedule: Q01DX001 (ip), vehicle: saline.

Consider `O=NN(CCF)C(=O)NC12CC3CC(CC(C3)C1)C2`, for which the T/C (dose: 20.0 mg/kg/injection, schedule: Q01DX001 (ip), vehicle: carboxymethylcellulose (CMC)) was 128 % of control. Further, the survivor count is, setting by setting: (dose: 375.0 mg/kg/injection, schedule: Q01DX001 (ip), vehicle: carboxymethylcellulose (CMC)) 0 of 6; (dose: 500.0 mg/kg/injection, schedule: Q01DX001 (ip), vehicle: carboxymethylcellulose (CMC)) 0 of 6; (dose: 750.0 mg/kg/injection, schedule: Q01DX001 (ip), vehicle: carboxymethylcellulose (CMC)) 0 of 6; (dose: 1000.0 mg/kg/injection, schedule: Q01DX001 (ip), vehicle: carboxymethylcellulose (CMC)) 0 of 6.
In the case of `ClCCOC(OCCCl)OCCCl`, under setting [1], the survivor count is on record as 3 of 6.
As to `S=C(Cc1ccc2ccccc2c1)N1CCOCC1`, the survivor count (dose: 200.0 mg/kg/injection, schedule: Q01DX001 (ip), vehicle: saline with Tween-80) is reported as 6 of 6 and the survivor count under setting [2] is on record as 6 of 6.
On to `CCCCCP(=O)(CCCCC)CCCCC`, for which the survivor count reads like this: under setting [3], 0 of 3; under setting [4], 0 of 3.
On to `CC(=O)Nc1ccccc1C(=NC1CCCC1)C(=O)NC1CCCC1`, for which the survivor count reads like this: (dose: 25.0 mg/kg/injection, schedule: Q01DX009 (ip), vehicle: Klucel (hydroxypropylcellulose) (HPC)) 5 of 6; (dose: 50.0 mg/kg/injection, schedule: Q01DX009 (ip), vehicle: Klucel (hydroxypropylcellulose) (HPC)) 0 of 6; (dose: 100.0 mg/kg/injection, schedule: Q01DX009 (ip), vehicle: Klucel (hydroxypropylcellulose) (HPC)) 0 of 6 and 6 of 6; under setting [5], 6 of 6.
With `COC(=O)c1ccccc1C=O`, the survivor count under setting [2] is on record as 0 of 6.
Turning to `Cc1n(-c2ccccc2)c2c([n+]1C)C(=O)c1ccccc1C2=O`, the survivor count (dose: 100.0 mg/kg/injection, schedule: Q04DX003 (ip), vehicle: saline with Tween-80) is given as 0 of 6; the survivor count (dose: 200.0 mg/kg/injection, schedule: Q04DX003 (ip), vehicle: saline with Tween-80) was 0 of 6; the survivor count under setting [6] is recorded as 0 of 6.
`Clc1ccc(/C=C/c2ccccc2)cc1`: for the setting “dose: 100.0 mg/kg/injection, schedule: Q01DX001 (ip), vehicle: other”, the T/C was 127 % of control.
Turning to `C=C1C(=O)OC2C1C(OC(=O)/C(=C/CO)CO)CC1(CO1)C1CC=C(C)C21` (stereo not drawn), the survivor count is, setting by setting: (dose: 25.0 mg/kg/injection, schedule: Q01DX001 (ip), vehicle: water) 0 of 6; (dose: 50.0 mg/kg/injection, schedule: Q01DX001 (ip), vehicle: water) 0 of 6; (dose: 75.0 mg/kg/injection, schedule: Q01DX001 (ip), vehicle: other) 0 of 6; (dose: 100.0 mg/kg/injection, schedule: Q01DX001 (ip), vehicle: water) 0 of 6; (dose: 150.0 mg/kg/injection, schedule: Q01DX001 (ip), vehicle: other) 0 of 6; (dose: 300.0 mg/kg/injection, schedule: Q01DX001 (ip), vehicle: other) 0 of 6.
In the case of `N/N=C/C=N/Nc1cnccn1`, the survivor count under setting [7] is given as 0 of 6.
Turning to `CC(=O)SCCNCCNC1CC2CCC1C2` (stereo not drawn), the survivor count runs as follows: (dose: 20.0 mg/kg/injection, schedule: Q04DX003 (ip), vehicle: saline) 6 of 6; (dose: 35.0 mg/kg/injection, schedule: Q01DX009 (ip), vehicle: saline) 1 of 6; (dose: 40.0 mg/kg/injection, schedule: Q04DX003 (ip), vehicle: saline) 1 of 6; (dose: 50.0 mg/kg/injection, schedule: Q01DX009 (ip), vehicle: saline) 0 of 6.
Take `Nc1ccc(I)cc1`: the survivor count under setting [6] was 6 of 6.
With `Cc1cc([N+](=O)[O-])ccc1P(=O)(O)O`, the survivor count under setting [6] is reported as 5 of 6.
As to `OCC1OC(n2cc(I)c3cncnc32)C(O)C1O` (stereo not drawn), the survivor count is recorded as 2 of 6 (dose: 100.0 mg/kg/injection, schedule: Q01DX005 (ip), vehicle: saline) and 3 of 6 (dose: 200.0 mg/kg/injection, schedule: Q01DX005 (ip), vehicle: saline).
Consider `O=[N+]([O-])c1ccc(Cl)c(O)c1`, for which the survivor count by setting is: (dose: 100.0 mg/kg/injection, schedule: Q01DX009 (ip), vehicle: carboxymethylcellulose (CMC)) 6 of 6; (dose: 200.0 mg/kg/injection, schedule: Q01DX009 (ip), vehicle: carboxymethylcellulose (CMC)) 0 of 6; (dose: 400.0 mg/kg/injection, schedule: Q01DX009 (ip), vehicle: carboxymethylcellulose (CMC)) 0 of 6.
Consider `Nc1nc(N)c2ncn(C3OC(CO)C(O)C3O)c2n1` (stereo not drawn), for which, under setting [8], the survivor count is given as 3 of 6.
With `O=C1Nc2ccccc2/C1=C/Cl`, the survivor count is, setting by setting: (dose: 100.0 mg/kg/injection, schedule: Q04DX002 (ip), vehicle: saline with Tween-80) 0 of 3; under setting [3], 0 of 3; under setting [4], 0 of 3.
With `C[N+]1(C)C2CC(O)CC1C1OC12` (stereo not drawn), the survivor count is recorded as 0 of 6 (dose: 10.0 mg/kg/injection, schedule: Q01DX001 (ip), vehicle: saline); 0 of 6 (dose: 20.0 mg/kg/injection, schedule: Q01DX001 (ip), vehicle: saline); 0 of 6 (dose: 40.0 mg/kg/injection, schedule: Q01DX001 (ip), vehicle: saline); 0 of 6 (dose: 75.0 mg/kg/injection, schedule: Q01DX001 (ip), vehicle: saline); 0 of 6 under setting [9]; 0 of 6 under setting [10].
As to `COc1ccc(C(=S)N(C)NC(=O)CC(=O)NN(C)C(=S)c2ccc(OC)cc2)cc1`, the survivor count (dose: 400.0 mg/kg/injection, schedule: Q01DX009 (ip), vehicle: gum acacia) is given as 2 of 6.
Regarding `COc1ccc2c3c1OC1C(OC(C)=O)=CCC4C(C2)N(C)CCC314` (stereo not drawn), the survivor count is 0 of 4 (dose: 200.0 mg/kg/injection, schedule: Q01DX001 (ip), vehicle: saline) and 0 of 4 under setting [8].
As for `N#CCCCCCCCCCC#N`, the survivor count was 0 of 6 under setting [5] and 0 of 6 under setting [7].
With `CC/C=N/Nc1ccc([N+](=O)[O-])cc1[N+](=O)[O-]`, the survivor count by setting is: (dose: 100.0 mg/kg/injection, schedule: Q01DX009 (ip), vehicle: saline with Tween-80) 5 of 6; (dose: 200.0 mg/kg/injection, schedule: Q01DX009 (ip), vehicle: saline with Tween-80) 6 of 6; under setting [1], 6 of 6.
As for `CCCCCCC[n+]1ccc(C#N)cc1`, the survivor count is, setting by setting: under setting [9], 1 of 6; under setting [10], 0 of 6.
In the case of `CC(=O)Oc1cc(OC(C)=O)c2ccccc2c1OC(C)=O`, the survivor count was 6 of 6 (dose: 12.5 mg/kg/injection, schedule: Q04DX003 (ip), vehicle: Klucel (hydroxypropylcellulose) (HPC)); 6 of 6 (dose: 25.0 mg/kg/injection, schedule: Q04DX003 (ip), vehicle: Klucel (hydroxypropylcellulose) (HPC)); 3 of 6 (dose: 50.0 mg/kg/injection, schedule: Q04DX003 (ip), vehicle: Klucel (hydroxypropylcellulose) (HPC)); 2 of 6 (dose: 100.0 mg/kg/injection, schedule: Q01DX001 (ip), vehicle: Klucel (hydroxypropylcellulose) (HPC)); 1 of 6 (dose: 200.0 mg/kg/injection, schedule: Q01DX001 (ip), vehicle: Klucel (hydroxypropylcellulose) (HPC)); 0 of 6 (dose: 400.0 mg/kg/injection, schedule: Q01DX001 (ip), vehicle: Klucel (hydroxypropylcellulose) (HPC)).
